Results as given in publication PMC12663309.
These are yes or no findings as the source states them, for the method shown. In cells and extracts the contact can be indirect. A yes stands for co-enrichment or nearness to the bait. Other partners may have been found. One block for each binder: values may come before it.

By UniProt entry, the sequences of proteins in these tests, tags left out.
UniProt Q8TDX7: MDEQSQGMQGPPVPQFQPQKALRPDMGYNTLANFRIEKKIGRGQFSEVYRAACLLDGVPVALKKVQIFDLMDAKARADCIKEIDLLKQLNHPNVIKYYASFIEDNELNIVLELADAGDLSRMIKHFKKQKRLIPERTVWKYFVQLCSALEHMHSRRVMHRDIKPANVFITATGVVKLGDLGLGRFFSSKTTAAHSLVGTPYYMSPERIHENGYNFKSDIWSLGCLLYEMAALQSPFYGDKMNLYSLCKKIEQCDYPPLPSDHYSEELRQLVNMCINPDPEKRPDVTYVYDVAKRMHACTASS

Biological target: NIMA-related kinase 7 (NEK7), endogenous, HepG2 mitochondria (human (endogenous in HepG2)) (UniProt Q8TDX7)
Assay: affinity purification with mass spectrometry; mitochondrial proteins purified from HepG2 cells; co-immunoprecipitation with NEK7 antibody (Abcam) against IgG, agarose magnetic beads, gel, trypsin, LC-MS/MS

binding: binds
B1: TDIF2 (protein, UniProt Q5QJE6 1-756)
chain: MVVTRSARAKASIQAASAESSGQKSFAANGIQAHPESSTGSDARTTAESQTTGKQSLIPRTPKARKRKSRTTGSLPKGTEPSTDGETSEAESNYSVSEHHDTILRVTRRRQILIACSPVSSVRKKPKVTPTKESYTEEIVSEAESHVSGISRIVLPTEKTTGARRSKAKSLTDPSQESHTEAISDAETSSSDISFSGIATRRTRSMQRKLKAQTEKKDSKIVPGNEKQIVGTPVNSEDSDTRQTSHLQARSLSEINKPNFYNNDFDDDFSHRSSENILTVHEQANVESLKETKQNCKDLDEDANGITDEGKEINEKSSQLKNLSELQDTSLQQLVSQRHSTPQNKNAVSVHSNLNSEAVMKSLTQTFATVEVGRWNNNKKSPIKASDLTKFGDCGGSDDEEESTVISVSEDMNSEGNVDFECDTKLYTSAPNTSQGKDNSVLLVLSSDESQQSENSENEEDTLCFVENSGQRESLSGDTGSLSCDNALFVIDTTPGMSADKNFYLEEEDKASEVAIEEEKEEEEDEKSEEDSSDHDENEDEFSDEEDFLNSTKAKLLKLTSSSIDPGLSIKQLGGLYINFNADKLQSNKRTLTQIKEKKKNELLQKAVITPDFEKNHCVPPYSESKYQLQKKRRKERQKTAGDGWFGMKAPEMTNELKNDLKALKMRASMDPKRFYKKNDRDGFPKYFQIGTIVDNPADFYHSRIPKKQRKRTIVEELLADSEFRRYNRRKYSEIMAEKAANAAGKKFRKKKKFRN

binding: binds
B2: succinate dehydrogenase complex iron sulfur subunit B (SDHB), endogenous, HepG2 mitochondria (protein, UniProt P21912 29-280)
chain: AQTAAATAPRIKKFAIYRWDPDKAGDKPHMQTYEVDLNKCGPMVLDALIKIKNEVDSTLTFRRSCREGICGSCAMNINGGNTLACTRRIDTNLNKVSKIYPLPHMYVIKDLVPDLSNFYAQYKSIEPYLKKKDESQEGKQQYLQSIEEREKLDGLYECILCACCSTSCPSYWWNGDKYLGPAVLMQAYRWMIDSRDDFTEERLAKLQDPFSLYRCHTIMNCTRTCPKGLNPGKAIAEIKKMMATYKEKKASV
